According to US20100075297A1, “PHOTOSENSITIVE POLYPEPTIDE AND METHODS OF THEIR PRODUCTION AND USE” (priority 2006, published 2010):
For at least one compound, name, drawing or mass did not settle the structure. Where a SMILES comes first, the peptide text is derived from it. [ ]: non-standard residue; d: D form. The star is where a group is joined. X1 = CN(C)c1ccc(-c2cnc(-c3ccc(S(=O)(=O)*)cc3)o2)cc1; pY = N[C@@H](Cc1ccc(OP(=O)(O)O)cc1)C(=O)O; Dab = NCC[C@H](N)C(=O)O

By UniProt entry, the sequences of proteins in these tests, tags left out. Residues count along the entry.
UniProt P06239, 127-224 limits assumed: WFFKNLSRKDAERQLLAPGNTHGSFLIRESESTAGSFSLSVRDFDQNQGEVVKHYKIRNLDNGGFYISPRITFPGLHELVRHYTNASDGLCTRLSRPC

Target: Lck SH2 domain (Homo sapiens, UniProt P06239)
Assay: Fluorescence titration of sensor peptide A with GST-Lck-SH2 (Kd determination)
Type: binding
Design: The Kd of the peptide A/Lck SH2 domain complex was determined as follows; made in house
Conditions: read-out: Kd of the peptide A/Lck SH2 domain complex; 3 μM peptide A, GST-Lck-SH2 0.1-25.6 μM, Tris pH 7.5, 30° C.; unit inferred

SMILES: CC[C@H](C)[C@H](NC(=O)[C@H](CCC(=O)O)NC(=O)CNC(=O)[C@H](Cc1ccc(OP(=O)(O)O)cc1)NC(C)=O)C(=O)N[C@@H](CCNS(=O)(=O)c1ccc(-c2ncc(-c3ccc(N(C)C)cc3)o2)cc1)C(=O)N[C@@H](C)C(N)=O [peptide A, Ac-pTyr-Gly-Glu-Ile-Dab(Dapoxyl)-Ala-NH2] (Ac-[pY]GEI[Dab](X1)A-NH2)
- Kd: 1.5 ± 0.3 µM
